{"source": "PubChem BioAssay AID1159584 (Peter MacCallum Cancer Centre, 2016)", "test": "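Genes whose loss is lethal only together with E-cadherin loss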 (primary screen)", "cells": "human MCF10A breast epithelial cells, parental and CDH1-null", "reagents": "siRNA against human genes", "detection": "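ATP luminescence (CellTiter-Glo) viability per line relative to mean mock wells over all plates, and the ratio of CDH1-null to parental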", "scale": "CDH1-null / parental viability ratio: higher = CDH1-null cells survive relatively better than parental", "note": "In all, the deposit lists about 18,000 reagents; this is an unselected part. Not all columns of the deposit are shown. The record does not give: the amount of reagent, the time to read-out."}
The opening 2 records as a preview:
{"target":"OR52N4 (GeneID 390072)","PubChem SID":"SID152150209","CDH1-null / parental viability ratio":1.38}
{"target":"TCEAL7 (GeneID 56849)","PubChem SID":"SID135623112","CDH1-null / parental viability ratio":0.84}

The list itself, repeating the preview:
{"target":"OR52N4 (GeneID 390072)","PubChem SID":"SID152150209","CDH1-null / parental viability ratio":1.38}
{"target":"TCEAL7 (GeneID 56849)","PubChem SID":"SID135623112","CDH1-null / parental viability ratio":0.84}
{"target":"OR6C1 (GeneID 390321)","PubChem SID":"SID152146863","CDH1-null / parental viability ratio":1}
{"target":"PRMT2 (GeneID 3275)","PubChem SID":"SID134310236","CDH1-null / parental viability ratio":0.75}
{"target":"NPNT (GeneID 255743)","PubChem SID":"SID135624648","CDH1-null / parental viability ratio":1.12}
{"target":"TMEM26 (GeneID 219623)","PubChem SID":"SID152154173","CDH1-null / parental viability ratio":1.13}
{"target":"EZHIP (GeneID 340602)","PubChem SID":"SID134329382","CDH1-null / parental viability ratio":0.95}
{"target":"NLGN4Y (GeneID 22829)","PubChem SID":"SID152153808","CDH1-null / parental viability ratio":0.9}
{"target":"POLN (GeneID 353497)","PubChem SID":"SID152154265","CDH1-null / parental viability ratio":1.09}
{"target":"FBXO16 (GeneID 157574)","PubChem SID":"SID134321383","CDH1-null / parental viability ratio":1.24}
{"target":"CYB5R3 (GeneID 1727)","PubChem SID":"SID152147820","CDH1-null / parental viability ratio":0.85}
{"target":"ZNF211 (GeneID 10520)","PubChem SID":"SID134323888","CDH1-null / parental viability ratio":0.92}
{"target":"IRX2-DT (GeneID 153571)","PubChem SID":"SID134321834","CDH1-null / parental viability ratio":0.78}
{"target":"OR52I2 (GeneID 143502)","PubChem SID":"SID152156449","CDH1-null / parental viability ratio":0.95}
